# Structures were worked out from names or drawings and are uncertain.
# Sequences of proteins named here, by UniProt entry; tags and fusion partners are left off.
# UniProt P11474, whole entry: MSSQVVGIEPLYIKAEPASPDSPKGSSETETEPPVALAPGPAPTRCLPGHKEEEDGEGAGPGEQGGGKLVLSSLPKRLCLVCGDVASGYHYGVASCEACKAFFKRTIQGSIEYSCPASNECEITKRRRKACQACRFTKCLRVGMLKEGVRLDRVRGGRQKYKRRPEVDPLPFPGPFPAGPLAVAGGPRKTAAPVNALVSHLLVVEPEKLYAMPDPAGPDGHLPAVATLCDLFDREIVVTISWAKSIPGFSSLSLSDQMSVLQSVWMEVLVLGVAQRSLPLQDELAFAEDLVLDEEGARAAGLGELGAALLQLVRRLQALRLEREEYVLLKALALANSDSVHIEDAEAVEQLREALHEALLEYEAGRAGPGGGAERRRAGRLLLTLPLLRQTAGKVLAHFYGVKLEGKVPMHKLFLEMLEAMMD
# UniProt P62508, whole entry: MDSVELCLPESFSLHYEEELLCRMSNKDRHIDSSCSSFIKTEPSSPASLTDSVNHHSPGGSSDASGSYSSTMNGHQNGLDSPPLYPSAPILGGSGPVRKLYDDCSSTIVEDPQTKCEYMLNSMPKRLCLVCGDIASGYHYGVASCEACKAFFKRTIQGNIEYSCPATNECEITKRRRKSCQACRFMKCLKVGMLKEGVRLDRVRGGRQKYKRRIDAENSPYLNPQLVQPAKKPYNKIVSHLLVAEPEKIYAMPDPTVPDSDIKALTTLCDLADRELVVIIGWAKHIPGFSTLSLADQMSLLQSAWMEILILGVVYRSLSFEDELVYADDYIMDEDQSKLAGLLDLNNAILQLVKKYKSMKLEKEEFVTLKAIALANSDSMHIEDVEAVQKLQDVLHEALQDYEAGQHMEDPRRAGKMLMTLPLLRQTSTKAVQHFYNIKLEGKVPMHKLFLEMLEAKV
# How the values were obtained:
# ERRα = ERRα (Homo sapiens, UniProt P11474); test: ERRE luciferase reporter assay in HEK293 cells transfected with pcDNA3.1 ERRα; settings: 24 hours treatment, luciferase activity
# Method: (§1) HEK293 cells were maintained in Dulbecco's modified Eagles medium (DMEM) supplemented with 10% fetal bovine serum at 37° C. under 5% CO2. Cells were plated in 96-well plates at a density of 2.5×10^4 cells/well and transiently transfected using Lipofectamine 2000 (Invitrogen) according to manufacturer's instructions. Cells were transfected with ERRE reporter construct and pcDNA3.1 ERRα or ERRγ. Twenty-four-hours post-transfection, the cells were treated with vehicle or compound (various concentrations) for 24 hours (4 wells per dose). Luciferase activity was measured using the One-Glo Tox luciferase reporter assay system (Promega) and […] were calculated using GraphPad Prism software.
# ERRγ = ERRγ (Homo sapiens, UniProt P62508); test: ERRE luciferase reporter assay in HEK293 cells transfected with pcDNA3.1 ERRγ; settings: read-out: EC50 (ERRγ), 24 hours treatment, luciferase activity
# Method: as §1
structure (smiles),measurement,setting,value
Oc1ccccc1C1=NNC(c2ccc(Cl)c(Cl)c2)C1 (centres unmarked),EC50 (ERRα),ERRα,i.a.
same,EC50,ERRγ,< 1 µM
